According to PubChem BioAssay AID743255 (National Center for Advancing Translational Sciences (NCATS), 2014):
Out of some 390,000 compounds screened, about 910 (0.23%) were called active. The inconclusive results got no clear call from the source; some entries with a clear call stand among them for comparison. Calls follow the shape of the dose curve; as a rule, active = well fitted inhibition curve with a large enough effect; inconclusive = small, poorly fitted or top-dose-only effect; inactive = no such curve, though single readings can be large or run the other way. A potency beside an inconclusive call is a rough fit, not a confirmed value.

Protein sequences, listed by entry. Tags and fused reporters are not part of them. Lines headed by an entry give the natural chain unless they say otherwise; changes in a name come on top.
UniProt O94782: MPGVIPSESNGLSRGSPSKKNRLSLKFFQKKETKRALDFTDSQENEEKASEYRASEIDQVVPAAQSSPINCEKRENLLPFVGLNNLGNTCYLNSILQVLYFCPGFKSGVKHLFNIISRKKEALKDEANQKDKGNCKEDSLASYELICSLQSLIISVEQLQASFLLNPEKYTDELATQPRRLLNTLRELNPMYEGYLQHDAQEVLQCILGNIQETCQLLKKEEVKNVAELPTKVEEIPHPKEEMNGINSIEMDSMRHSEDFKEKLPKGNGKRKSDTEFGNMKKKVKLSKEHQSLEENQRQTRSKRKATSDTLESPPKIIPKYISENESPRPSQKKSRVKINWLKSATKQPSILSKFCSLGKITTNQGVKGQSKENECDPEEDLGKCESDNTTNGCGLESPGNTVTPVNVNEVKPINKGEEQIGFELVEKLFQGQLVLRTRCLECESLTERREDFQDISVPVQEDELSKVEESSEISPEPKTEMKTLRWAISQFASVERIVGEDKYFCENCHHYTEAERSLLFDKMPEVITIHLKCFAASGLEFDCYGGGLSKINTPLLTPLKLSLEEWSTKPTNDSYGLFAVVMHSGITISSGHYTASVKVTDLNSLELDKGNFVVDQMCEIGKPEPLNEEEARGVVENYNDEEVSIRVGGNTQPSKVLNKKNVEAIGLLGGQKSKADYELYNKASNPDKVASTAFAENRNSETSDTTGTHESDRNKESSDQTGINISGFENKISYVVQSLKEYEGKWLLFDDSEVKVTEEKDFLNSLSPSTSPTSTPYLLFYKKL

Biological target: Ubiquitin carboxyl-terminal hydrolase 1 (Homo sapiens) (UniProt O94782)
Assay: Inhibitors of USP1/UAF1: Primary Screen; also: nearly all actives have a fitted effect of over 60% in size
Details: recombinant USP1/UAF1, Ub-Rhodamine cleavage fluorescence; activity change, negative = inhibition: at 57.1 µM (top of the series)
Summary of the method: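 USP1/UAF1 complex at 1 nM was preincubated with compound for 15 min at room temperature, then Ub-Rho substrate (150nM final) was added. Fluorescence (480/540 nm) was read kinetically, 6 reads every 60 seconds.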
% is scaled to controls: 0 for no effect and ±100 for the full control effect; potency is read from the fitted curve at half-maximal effect.

Structure (SMILES) | activity change, negative = inhibition | Potency
COc1ccc(CN(C)c2ccc(-c3nc(C)no3)cc2[N+](=O)[O-])cc1 | inactive: -18.2% | 
CCc1ccc(N2CC34C=CC(O3)C(C(=O)OC(C)C)C4C2=O)cc1 (configuration not stated) |  | inconclusive: 20 µM [inhibitor, partial curve, poor fit]
O=C1c2ccccc2C(=O)N1OS(=O)(=O)c1ccc(F)cc1 | inactive: -19.5% | 
COc1cc(N2CCCC2)c(OC)cc1/C=C1/NC(=S)NC1=O |  | inconclusive: 2.82 µM [inhibitor, full curve, poor fit]
O=C(NC(=S)Nc1ccc(S(=O)(=O)Nc2nccs2)cc1)c1ccccc1 | inactive: -3.37% | 
COC(=O)CNC(=O)c1cc(-c2ccncc2)nc2c(C)c(Cl)ccc12 | inactive: -22.4% | 
Cc1ccc(C)c(N2CCN(C(=O)Cc3cn(C)c4ccccc34)CC2)c1 |  | inconclusive: 31.6 µM [inhibitor, single point]
O=C(O)C[C@H]1c2ccccc2S(=O)(=O)N1c1ccccc1 |  | inconclusive: 5.01 µM [inhibitor, partial curve]
CCCCCCSc1ccc([C@@H]2[C@H]3C(=O)N(C)C(=O)[C@H]3[C@]3(C(=O)OC)CCCCN23)cc1 |  | inconclusive: 35.5 µM [inhibitor, partial curve]
CCN1C(=O)[C@@H]2[C@@H](c3ccc(SC4CCCCC4)c(OC)c3)N3CCCC[C@@]3(C(=O)OC)[C@@H]2C1=O |  | inconclusive: 56.2 µM [inhibitor, single point]
COc1ccc(/C=N/Nc2nccnc2Cl)cc1 |  | inconclusive: 3.16 µM [inhibitor, partial curve]
COc1ccc(CCn2c(C)cc(C(=O)CSc3nnnn3-c3ccccc3)c2C)cc1OC |  | inconclusive: 28.2 µM [inhibitor, partial curve]
COc1ccc(C)cc1-n1nnnc1SCC(=O)Nc1cc(C)on1 | inactive: -0.554% | 
CN1CC=C2C(C#N)=C(N)C(C#N)(C#N)[C@H](c3cccs3)[C@H]2C1 |  | inconclusive: 31.6 µM [inhibitor, single point]
CC1=CCC[C@@H]2[C@@](C)(CC/C(C)=C/C(=O)O)[C@H](C)CC[C@@]12C |  | inconclusive: 44.7 µM [inhibitor, partial curve, poor fit]
CCc1cc2c(cc3c(=O)n(CC(=O)NC4CCC(C)CC4)nc(CC)n32)s1 (configuration not stated) |  | inconclusive: 0.398 µM [inhibitor, full curve, poor fit]
O=C(CN(c1ccccc1)S(=O)(=O)c1ccccc1[N+](=O)[O-])N1CCCC1 |  | inconclusive: 8.91 µM [inhibitor, full curve, poor fit]
CCC(=O)Nc1cc(-c2nc3cc(C)cc(C)c3o2)ccc1C | inactive: -3.42% | 
O=C(Cc1c[nH]c2ccccc12)NCc1ccccc1F |  | inconclusive: 10 µM [inhibitor, partial curve]
CCn1c(CN2CCCCC2)nc2cc(NC(=O)COc3cc(C)ccc3C(C)C)ccc21 |  | inconclusive: 35.5 µM [inhibitor, single point]
COc1ccc(-n2sc3ccccc3c2=O)cc1 |  | inconclusive: 0.251 µM [inhibitor, full curve, poor fit]

Structure (SMILES) | activity change, negative = inhibition | Potency
O=C(O)c1ccc[nH]c1=S | inactive: -9.49% | 
CCOC(=O)C1CCN(C(c2cc3ccc(C)c(C)c3[nH]c2=O)c2nnnn2C2CCCCC2)CC1 (configuration not stated) |  | inconclusive: 31.6 µM [inhibitor, partial curve]
O=C1COc2cc(O)ccc21 |  | inconclusive: 4.47 µM [inhibitor, partial curve]
COc1ccc(C)cc1NC(=O)CN1CCCN(S(=O)(=O)c2ccc(Br)cc2)CC1 |  | inconclusive: 8.91 µM [inhibitor, partial curve]
CCNc1ccc2noc3c2c1C(=O)c1ccccc1-3 |  | inconclusive: 6.31 µM [inhibitor, partial curve, poor fit]
Cc1ccc(-c2csc(N3CCN(c4cc5c(cc4Cl)nc(-c4ccncc4)n5CCN4CCCCC4)CC3)n2)cc1 | inactive: -6.26% | 
Cc1ccc(-n2c(N)c(C(=O)N3CCCCC3)sc2=S)cc1 | inactive: -13.4% | 
CC(Sc1ncnc2c1cnn2-c1ccccc1)C(=O)NCC1CCCO1 (configuration not stated) |  | inconclusive: 50.1 µM [inhibitor, partial curve, poor fit]
CCOc1ccccc1NC(=O)c1c(NC(=O)Cc2ccccc2)sc2c1CCCC2 |  | inconclusive: 5.01 µM [inhibitor, partial curve]
c1cncc(Nc2nc(-c3ccncc3)cs2)c1 | inactive: -12.3% | 
O=[N+]([O-])c1ccc(N/N=C/c2ccc(O)c(O)c2O)c(S(=O)(=O)N2CCOCC2)c1 |  | inconclusive: 28.2 µM [inhibitor, partial curve]
OCC1(Cc2cccc(Cl)c2)CCCN(Cc2ccc3cc(F)ccc3n2)C1 (configuration not stated) |  | inconclusive: 39.8 µM [inhibitor, partial curve]
COc1cc2c(cc1O)[C@@H]1Cc3cc(O)c(OC)cc3[C@H](C2)N1C |  | inconclusive: 0.251 µM [inhibitor, full curve]
Cc1ccccc1NC1=NS(=O)(=O)c2ccccc21 |  | inconclusive: 0.126 µM [inhibitor, full curve, poor fit]
CC1(C)CC(NC(=O)COc2ccc([N+](=O)[O-])cc2)CC(C)(C)N1 |  | inconclusive: 31.6 µM [inhibitor, partial curve, poor fit]
Cc1cccc(/C(N)=N/OC(=O)C23CC4CC(CC(C4)C2)C3)c1 | inactive: -11.6% | 
COCCCNC(=O)N1CCN(c2nnc(C)c3c(C)n(-c4ccc(Cl)cc4)nc23)CC1 | inactive: -0.139% | 
O=C(c1ccccc1)N1CCN(S(=O)(=O)N2CCCCCC2)CC1 |  | inconclusive: 39.8 µM [inhibitor, single point]
CC(=O)c1ccc(NC(=S)N2CCN(C(=S)Nc3ccc(C(C)=O)cc3)C(C)C2)cc1 (configuration not stated) |  | inconclusive: 1.58 µM [inhibitor, full curve, poor fit]
COc1ccc(N(C(=O)c2ccc(C)cc2)S(=O)(=O)c2ccc(Cl)cc2)cc1 |  | inconclusive: 44.7 µM [inhibitor, partial curve, poor fit]
O=C1CN(C(=O)c2ccc(S(=O)(=O)N3CCCC3)cc2)C(c2ccc(F)cc2)c2cc(F)ccc2N1 (configuration not stated) |  | inconclusive: 3.98 µM [inhibitor, partial curve]

3 structures out of the list, arranged by heavy-atom count, falling:
Structure (SMILES) | activity change, negative = inhibition | Potency
CC(=O)c1ccc(NC(=S)N2CCN(C(=S)Nc3ccc(C(C)=O)cc3)C(C)C2)cc1 (configuration not stated) |  | inconclusive: 1.58 µM [inhibitor, full curve, poor fit]
Cc1ccccc1NC1=NS(=O)(=O)c2ccccc21 |  | inconclusive: 0.126 µM [inhibitor, full curve, poor fit]
O=C1COc2cc(O)ccc21 |  | inconclusive: 4.47 µM [inhibitor, partial curve]
